Experimental data: patent US20200115460A1
No constants are given. Whether binding was seen depends on the method and setting. Some results given as binding are weak or reduced against the parent protein; the word gives no strength.

Protein sequences, listed by entry. Tags and fused reporters are not part of them. Lines headed by an entry give the natural chain unless they say otherwise; changes in a name come on top.
UniProt P08069: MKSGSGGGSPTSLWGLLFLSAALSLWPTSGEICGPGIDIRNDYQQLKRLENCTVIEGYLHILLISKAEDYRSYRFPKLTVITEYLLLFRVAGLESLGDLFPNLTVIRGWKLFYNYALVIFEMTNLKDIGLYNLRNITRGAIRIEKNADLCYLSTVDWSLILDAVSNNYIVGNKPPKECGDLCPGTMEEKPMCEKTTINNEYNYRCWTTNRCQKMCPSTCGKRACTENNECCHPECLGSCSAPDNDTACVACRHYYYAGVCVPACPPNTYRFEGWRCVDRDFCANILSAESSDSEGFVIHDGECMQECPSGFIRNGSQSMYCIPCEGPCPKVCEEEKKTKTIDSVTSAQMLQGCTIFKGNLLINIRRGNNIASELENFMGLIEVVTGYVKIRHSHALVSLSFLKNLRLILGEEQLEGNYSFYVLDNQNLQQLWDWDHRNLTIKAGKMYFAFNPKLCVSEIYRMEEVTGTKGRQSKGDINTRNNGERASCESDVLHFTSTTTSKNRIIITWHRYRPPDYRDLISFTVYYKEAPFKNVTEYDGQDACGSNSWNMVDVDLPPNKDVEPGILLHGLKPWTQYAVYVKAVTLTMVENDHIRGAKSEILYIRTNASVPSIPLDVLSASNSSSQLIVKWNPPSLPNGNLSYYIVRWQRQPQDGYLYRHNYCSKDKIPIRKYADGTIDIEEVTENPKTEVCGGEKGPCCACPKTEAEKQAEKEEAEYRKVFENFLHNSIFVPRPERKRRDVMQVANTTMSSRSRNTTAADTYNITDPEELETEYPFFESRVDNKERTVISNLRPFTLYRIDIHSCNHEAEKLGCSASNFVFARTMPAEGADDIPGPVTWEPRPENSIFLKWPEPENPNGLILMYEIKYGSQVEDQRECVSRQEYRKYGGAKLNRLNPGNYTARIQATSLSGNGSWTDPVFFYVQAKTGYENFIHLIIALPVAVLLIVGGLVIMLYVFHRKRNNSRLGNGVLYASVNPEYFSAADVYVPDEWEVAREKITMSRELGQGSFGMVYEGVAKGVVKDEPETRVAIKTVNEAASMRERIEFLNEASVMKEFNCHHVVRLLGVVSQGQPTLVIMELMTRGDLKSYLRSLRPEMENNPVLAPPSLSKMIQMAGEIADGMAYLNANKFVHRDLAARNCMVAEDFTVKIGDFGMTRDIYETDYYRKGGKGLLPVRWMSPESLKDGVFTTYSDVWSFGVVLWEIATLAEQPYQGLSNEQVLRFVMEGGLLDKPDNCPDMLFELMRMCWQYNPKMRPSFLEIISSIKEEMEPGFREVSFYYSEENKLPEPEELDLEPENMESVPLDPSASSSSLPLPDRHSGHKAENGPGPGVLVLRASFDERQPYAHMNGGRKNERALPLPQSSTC

Target: recombinant human IGF-I receptor His tag (305-GR-050, R&D SYSTEMS) (human) (UniProt P08069)
Experiment: SPR, Biacore T200

B1: IGF11-16 (antibody, mouse IgG1, kappa, V domains shown)
VH: QIQLQQPGAELVKPGASVKLSCKAPGYTFTSYWMHWVKQRPGQGLEWIGETNPSNSVTNYNEKFKSKATLTVDKSSSTAYMQLSSLTSEDSAVYYCTIGRGRGFAYWGQGTLVTVSA
VL: DIQMNQSPSSLSASLGDTITITCRASQNINFWLSWCQQKPGNIPKLLIYKASNLHTGVPSRFSGSGSGTDFTLTISSLQPEDIATYYCLQGQSYPYTFGGGTKLEIKR
For B1, the binding was “binds”.
